Measurements from “University of Dundee, Small-Polar-MMV Screening Library” (2021), ChEMBL document CHEMBL3988442.

T. brucei: 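Whole-parasite assay of Trypanosoma brucei over 72 hours; the read-out is not stated. Tested at 30 µM. The record gives no direction; compounds that gave an IC50 in retests scored well above the rest, so higher reads as stronger inhibition. Values scatter widely below zero; nearly all retest evidence comes from the higher of the two concentrations used. About 64,000 compounds were tested under these conditions; 1.5% (about 940) showed 50% or more at least once.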
Leishmania in macrophages: 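Cell assay of Leishmania donovani living inside macrophages; the read-out is not stated. Concentration: 30 µM. Higher reads as stronger inhibition (inferred: compounds with an IC50 in retests scored well above the rest). Size under these conditions: about 69,000 compounds, about 1,000 of them at 50% or above in at least one test.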

Each number is a percent effect as filed.
The record does not define 0% and 100%; most values in the screen are far below 50% and negative numbers occur (in some assays of this library far below -100).
The compounds are a random part of those screened.
Two or more numbers in one place are separate tests of the same structure; such repeats can differ widely.
A dash means the value is not listed here; it may have been measured.

Compound	T. brucei	Leishmania in macrophages
Cc1ccc(CN(C)C(=O)CN2CC(n3cccn3)C2)o1	-29.34%	16.11%
COc1ncccc1CNC(=O)c1cccnc1O	-3.458%	22.83%
COc1c(CNCCNC(=O)c2ccccc2)c(C)nn1C.Cl	-11.06%	37.81%
Cc1nnc(N2CCOC(C)(C(=O)N(C)C)C2)c2ccccc12 (stereo not shown)	3.592%	-7.286%
COCc1nc(C(=O)N2CCN(c3nccc(OC)n3)CC2)cs1	-34.36%	-21.64%
CCC(C)(C)NC(=O)Cn1nc(C)nc1-c1cccc(C)c1	12.75%	8.857%
CCNC(c1ccc(F)cc1)c1cccnc1 (stereo not shown)	-17.98%	-28.47%
c1cnn(-c2ccc(CN3CCOC(Cn4cncn4)C3)cc2)c1 (stereo not shown)	26.35%	-2.429%
CC(C)c1nc(C2CCCN(C(=O)c3ccc4c(c3)OCO4)C2)no1 (stereo not shown)	-	3.621%
CO[C@@H]1CO[C@@]2(CCN(C(=O)COc3ccccc3C)C2)C1	-13.36%	8.873% and 14.69%
Cc1ccsc1C(=O)N1CCc2ncc(Cn3cccn3)n2CC1	6.351%	-4.847%
CCN1C(=O)CC(c2cnn(C)c2)C12CCN(C(=O)c1ccc[nH]1)CC2 (stereo not shown)	-27%	-2.745%
Cc1ccc(CN(C)C(=O)CNC(=O)N2CCc3ccccc3C2)o1	-36.89%	3.63%
O=C(CCC(=O)N1CCCC1c1cccs1)N1CCc2sccc2C1 (stereo not shown)	2.492%	10.88%
Cc1ccc(C)c(NC(=O)Cc2c(C)nc3c(c2C)c(=O)[nH]n3C)c1	-16.49%	18.18%
[H][C@]12CCN(C(=O)c3ccno3)C[C@@]1([H])OCCN(C1CCOCC1)C2	-4.95%	14.67%
Cc1ccc(NC(=O)C(C)N2CCCN(c3nccs3)CC2)c(C)c1 (stereo not shown)	-10.54%	36.47%
Cc1cc2cccc(C(=O)N3CC[C@@H](N)[C@H](O)C3)c2o1	-	4.018%
CCC(CC)C(=O)NCC1(NC(C)c2ccccc2)CCOCC1 (stereo not shown)	-62.3%	-45.13%
[H][C@]12CN(Cc3cccnc3)C(=O)[C@@]1([H])CN(C1CCOCC1)C2	-33.31%	-19.92%
Cc1nccn1CCCC(=O)N1CCN(c2cccnc2)CC1	-2.27%	11.22%
Cc1cc(-c2cc(N)c(=O)n(CC(=O)N3CCCC(C)C3)n2)c(C)o1 (stereo not shown)	-21.26%	14.25%
CN(Cc1ccccc1)c1ncccc1CNC(=O)c1ccnn1C	-54.71%	22.15%
Cc1cnn(CCNCc2nnc(Cc3ccccc3)o2)c1	-13.5%	12.19%
Cc1nccnc1C1CCN(C2CCCC2O)CC1 (stereo not shown)	-10.41%	18.48%
CCN1CC(=O)c2sc(NC(C)C)nc2C1	-22.18%	9.879% and 14.9%
CN(C)c1nc2c(c(N(C)Cc3n[nH]c4c3CCCC4)n1)CCNCC2	21.59%	-4.474%
COC(=O)CCC(=O)N1CCC2(CN(Cc3ccccc3)C2)C1	-57.82%	-2.48%
CC(C)N1CCC(C(=O)N(C)CC(=O)c2ccc(O)cc2)CC1	-68.6%	1.299%
Cc1csc(CN2CCn3c(COc4cccnc4)cnc3C2C)n1.O=C(O)C(F)(F)F.O=C(O)C(F)(F)F (stereo not shown)	0.3585%	36.34%
O=C1CCN(C(=O)NCC(c2ccccc2)c2ccccc2)CCN1	8.813%	17.45%
COCCNc1ccc(CNC(=O)C2COc3ccccc32)cc1 (stereo not shown)	-25.05%	5.651%
Cc1csc2ncc(-c3ccnc(NC4CCOCC4)n3)c(=O)n12	-16.29%	13.04% and -3.696%
COC(=O)c1ccc(OCC(=O)N(C)Cc2ccsc2)c(OC)c1	-24.63%	29.03%
CC(C)(C)CN[C@@H]1CO[C@H](CNC(=O)Nc2ccccc2)[C@H]1O	-0.4694%	19.34%
CCC(C(=O)N1CCN(C(=O)N2CCOCC2)CC1)n1cccn1 (stereo not shown)	-5.46%	25.12%
O=C(NC1CC2(CCN(CCO)CC2)c2ccccc21)c1ccsc1.O=C(O)C(F)(F)F (stereo not shown)	-43.44%	17.25%
O=C(C1CC1)N1CCN(Cc2ccncc2)c2ncccc2C1.O=C(O)C(F)(F)F.O=C(O)C(F)(F)F	-3.69%	15.62%
O=C(c1cnco1)N1CCC(Cc2ccc3ncccc3c2)CC1	1.088%	-7.854%
Cc1ccccc1CC(=O)N1CCCn2cncc2C1	42.59%	-10.43%
Cc1nc(C)n(CC2CCCN(CC(=O)Nc3nnc(C)s3)C2)n1 (stereo not shown)	-	-4.358%
CCOCC(O)CN1CCN(C(=O)c2cccc(CC#N)c2)CC1 (stereo not shown)	-4.767%	8.771%
Cc1cccc(CN2CCC3(CCC(CC(=O)N(C)C)CC3)CC2)n1.O=C(O)C(F)(F)F	-38.92%	22.02%
Cc1ccc(C#N)c(N2CCCC(c3nccn3Cc3cscn3)C2)n1 (stereo not shown)	-29.99%	4.269%
O=C(Cc1ccccn1)N1CC[C@]2(C[C@@H](Oc3ncccc3F)CO2)C1.O=C(O)C(F)(F)F.O=C(O)C(F)(F)F	-12.46%	-17.66%
O=C1NCCCCC1NC(=O)C1(c2cccc(Cl)c2)CC1 (stereo not shown)	-53.11%	20.11%
Cc1cc(C)n(CC(=O)N(CC2CN(C)CCO2)c2nccs2)n1 (stereo not shown)	5.275%	-15.82%
COc1ccc2c(c1)OCC(CNC(=O)NC(C)(C)C)C2 (stereo not shown)	-22.73%	4.598%
CC(C)CN1CCCC1c1ccc(C(=O)Nc2cc[nH]n2)s1 (stereo not shown)	23.5%	15.8%
CCOC(=O)CN1CC(c2nc(-c3ccsc3)no2)C1.O=C(O)C(=O)O	-13.02%	42.49%
COCCNc1nnc(-c2ccc(C)nc2)s1	-	-4.273%
Cc1nc(CC(=O)N2CCCC2c2nc(C(C)C)no2)cs1 (stereo not shown)	-51.68%	-47.88%
CC1CCCCN1CCNC(=O)NCc1ccc(C#N)cc1F (stereo not shown)	6.954%	6.658%
CN1CCN(C2CCN(CC(O)c3ccccc3)CC2)C1=O (stereo not shown)	-19.54%	15.38%
CCn1cc(CN2CCCN(C(=O)c3cccc(C#N)c3)CC2)cn1	-	4.756%
CS(=O)(=O)C1CCN(S(=O)(=O)c2ccc(F)c(F)c2)C1 (stereo not shown)	-9.91%	54.9%
Cc1ccc(-c2c[nH]c([C@@H]3COCCN3Cc3ncc[nH]3)n2)cc1	13.39%	46.45%
COc1ccc(Br)cc1CCC(=O)N1CCCC1	-71.63%	-2.277%
COc1cccc(OC2CN(C(=O)c3cc(CC(C)C)nn3C)C2)c1	12.3%	11.59%
N#Cc1ccccc1Cn1cncn1	-	5.718%
[H][C@@]12CN(CC3CCOCC3)C[C@]1([H])OCCN2c1ccnc(N(C)C)n1	30.85%	37.33%
O=C(c1ccc(-n2ccnc2)cc1)N1CCCC(n2ccnc2)C1 (stereo not shown)	15.06%	27.37%
NC(=O)NC(=O)CCN1CCC(C(=O)c2cc(F)ccc2F)CC1	-30.31%	1.833%
COC(=O)C(C)(C)S(=O)(=O)c1ccc(Br)cc1	-4.59%	1.142%
Cc1cc(C)n(CC2CCCN2C(=O)c2nccc3ccccc23)n1 (stereo not shown)	-	15.2%
CN1CCC(N(Cc2ccncc2)C(=O)COCC2CCCCO2)CC1 (stereo not shown)	-26.74%	-9.355%
O=C(CCc1cc2n(n1)CCCNC2)N1CCC(N2CCOC2=O)CC1	-12.69%	22.43%
COc1ccc(CNC(=O)CNc2cc3c(cc2Cl)OCCO3)cc1	-15.76%	-15.8%
COc1cc2c(cc1CN1C[C@@H](CN3CCOCC3)[C@@H](CO)C1)CCC2	11.33%	45.78%
CCOCC1CN(Cc2ccc(F)cc2)Cc2nn(C)cc21.O=C(O)C(F)(F)F (stereo not shown)	30.14%	23.91%
CSCC[C@H](N)C(=O)NCc1cc2n(n1)CCCN(C(=O)N(C)C)C2	-20.23%	30.1%
CC(C)c1nnc2n1CCN(Cc1csc(-c3cnn(C)c3)n1)C2	-9.906%	-1.229%
COc1cn(CC(=O)N2CCN(c3ccc(Cl)cc3)CC2)c(C)cc1=O	-14.94%	-12.96%
CCN(C)S(=O)(=O)N(CC)Cc1cccc(-c2ccncc2)c1	-24.96%	31.98%
CN(C)C(CNCc1nc(-c2ccsc2)no1)c1ccco1 (stereo not shown)	-366.4%	-76.8%
c1csc(-c2nc(CN3CCCCC3Cn3cccn3)co2)c1 (stereo not shown)	-27.93%	2.464%
CNC(=O)C1CCCN(C(=O)c2ccccc2-n2cc(CN)cn2)C1 (stereo not shown)	-	4.451%
Cc1nc(CN2CCN(C(=O)c3sccc3C3CC3)CC2)cs1	-1.402%	19.21%

Repeated from the top, 7 entries:

Compound	T. brucei	Leishmania in macrophages
Cc1ccc(CN(C)C(=O)CN2CC(n3cccn3)C2)o1	-29.34%	16.11%
COc1ncccc1CNC(=O)c1cccnc1O	-3.458%	22.83%
COc1c(CNCCNC(=O)c2ccccc2)c(C)nn1C.Cl	-11.06%	37.81%
Cc1nnc(N2CCOC(C)(C(=O)N(C)C)C2)c2ccccc12 (stereo not shown)	3.592%	-7.286%
COCc1nc(C(=O)N2CCN(c3nccc(OC)n3)CC2)cs1	-34.36%	-21.64%
CCC(C)(C)NC(=O)Cn1nc(C)nc1-c1cccc(C)c1	12.75%	8.857%
CCNC(c1ccc(F)cc1)c1cccnc1 (stereo not shown)	-17.98%	-28.47%